We go through three molecules from PMC8268705.

By UniProt entry, the sequences of proteins in these tests, tags left out. Where a name states a change or a piece, a line headed by the entry shows the natural chain unless it says otherwise. Chains listed by the source or under a name are the forms on record and can include a tag or linker. Residues count along the entry.
UniProt P48436: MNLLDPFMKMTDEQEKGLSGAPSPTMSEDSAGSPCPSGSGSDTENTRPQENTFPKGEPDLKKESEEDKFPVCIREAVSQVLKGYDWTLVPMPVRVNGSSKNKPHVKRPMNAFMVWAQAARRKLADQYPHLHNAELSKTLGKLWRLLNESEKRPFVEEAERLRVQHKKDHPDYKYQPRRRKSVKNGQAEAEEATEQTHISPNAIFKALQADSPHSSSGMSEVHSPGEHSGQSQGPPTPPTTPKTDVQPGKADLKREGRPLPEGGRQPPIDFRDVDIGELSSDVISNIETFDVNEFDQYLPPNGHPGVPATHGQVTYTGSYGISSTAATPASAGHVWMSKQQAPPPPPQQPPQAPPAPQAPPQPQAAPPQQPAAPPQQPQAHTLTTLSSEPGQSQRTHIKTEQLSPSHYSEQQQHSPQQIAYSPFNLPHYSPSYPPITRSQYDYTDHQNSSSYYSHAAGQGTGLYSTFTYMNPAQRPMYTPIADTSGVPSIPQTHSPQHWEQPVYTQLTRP
GST-fused SOX9 fragment, N-terminal region (105-208): residues 105-208 of P48436

These are yes or no findings as the source states them, for the method shown. Binding seen in cells or lysates may run through a third protein. Some entries that bind do so weakly or less than the wild type. For part of these data: Where a sequence is shown, tags or fusion partners need not be part of it.

The target of assay [1] is T1, GST-fused RIP140 fragment, amino acids 683 to 916 (C-terminal region of RIP140) (UniProt P48552).
T1 sequence: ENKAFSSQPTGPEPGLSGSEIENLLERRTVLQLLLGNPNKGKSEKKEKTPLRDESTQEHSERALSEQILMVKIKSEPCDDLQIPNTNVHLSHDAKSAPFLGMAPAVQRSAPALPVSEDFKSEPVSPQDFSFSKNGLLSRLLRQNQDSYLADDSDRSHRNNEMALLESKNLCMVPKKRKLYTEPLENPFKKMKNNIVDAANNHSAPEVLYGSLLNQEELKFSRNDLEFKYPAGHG
In words: pull-down; purified GST fusion proteins incubated with 35S-labelled cell-free-synthesized proteins overnight at 4 °C in NETN buffer (0.5% NP-40, 1 mM EDTA, 20 mM Tris pH 8, 100 mM NaCl, 10 mM dithiothreitol, protease inhibitors); SDS-PAGE, Phosphorimager; only the target purified.

For assay [2], the target named is SOX9, endogenous in SW480 cells (human (endogenous in SW480)) (UniProt P48436). Put plainly: proximity ligation; Duolink in situ PLA in fixed, permeabilised SW480 cells with primary anti-RIP140 and anti-SOX9 antibodies; signal only when the probes are within 40 nm.
Assay [3] has as its target GST-fused SOX9 fragment, N-terminal region (105-208) (UniProt P48436). In words: pull-down; purified GST fusion proteins incubated with 35S-labelled cell-free-synthesized proteins overnight at 4 °C in NETN buffer (0.5% NP-40, 1 mM EDTA, 20 mM Tris pH 8, 100 mM NaCl, 10 mM dithiothreitol, protease inhibitors); SDS-PAGE, Phosphorimager; only the target purified.

Consider “in vitro translated 35S-labeled SOX9 protein (from UniProt P48436 1-509)”, for which, in assay [1], the binding result is given as “binds”.

B1: Receptor-Interacting Protein of 140 kDa (RIP140), endogenous in SW480 cells (protein, UniProt P48552 1-1158)
chain: MTHGEELGSDVHQDSIVLTYLEGLLMHQAAGGSGTAVDKKSAGHNEEDQNFNISGSAFPTCQSNGPVLNTHTYQGSGMLHLKKARLLQSSEDWNAAKRKRLSDSIMNLNVKKEALLAGMVDSVPKGKQDSTLLASLLQSFSSRLQTVALSQQIRQSLKEQGYALSHDSLKVEKDLRCYGVASSHLKTLLKKSKVKDQKPDTNLPDVTKNLIRDRFAESPHHVGQSGTKVMSEPLSCAARLQAVASMVEKRASPATSPKPSVACSQLALLLSSEAHLQQYSREHALKTQNANQAASERLAAMARLQENGQKDVGSYQLPKGMSSHLNGQARTSSSKLMASKSSATVFQNPMGIIPSSPKNAGYKNSLERNNIKQAANNSLLLHLLKSQTIPKPMNGHSHSERGSIFEESSTPTTIDEYSDNNPSFTDDSSGDESSYSNCVPIDLSCKHRTEKSESDQPVSLDNFTQSLLNTWDPKVPDVDIKEDQDTSKNSKLNSHQKVTLLQLLLGHKNEENVEKNTSPQGVHNDVSKFNTQNYARTSVIESPSTNRTTPVSTPPLLTSSKAGSPINLSQHSLVIKWNSPPYVCSTQSEKLTNTASNHSMDLTKSKDPPGEKPAQNEGAQNSATFSASKLLQNLAQCGMQSSMSVEEQRPSKQLLTGNTDKPIGMIDRLNSPLLSNKTNAVEENKAFSSQPTGPEPGLSGSEIENLLERRTVLQLLLGNPNKGKSEKKEKTPLRDESTQEHSERALSEQILMVKIKSEPCDDLQIPNTNVHLSHDAKSAPFLGMAPAVQRSAPALPVSEDFKSEPVSPQDFSFSKNGLLSRLLRQNQDSYLADDSDRSHRNNEMALLESKNLCMVPKKRKLYTEPLENPFKKMKNNIVDAANNHSAPEVLYGSLLNQEELKFSRNDLEFKYPAGHGSASESEHRSWARESKSFNVLKQLLLSENCVRDLSPHRSNSVADSKKKGHKNNVTNSKPEFSISSLNGLMYSSTQPSSCMDNRTFSYPGVVKTPVSPTFPEHLGCAGSRPESGLLNGCSMPSEKGPIKWVITDAEKNEYEKDSPRLTKTNPILYYMLQKGGNSVTSRETQDKDIWREASSAESVSQVTAKEELLPTAETKASFFNLRSPYNSHMGNNASRPHSANGEVYGLLGSVLTIKKESE
B1: the binding entry in assay [2] is recorded as “binds”.

B2: in vitro translated 35S-labeled RIP140 (protein, UniProt P48552 1-1158)
chain: MTHGEELGSDVHQDSIVLTYLEGLLMHQAAGGSGTAVDKKSAGHNEEDQNFNISGSAFPTCQSNGPVLNTHTYQGSGMLHLKKARLLQSSEDWNAAKRKRLSDSIMNLNVKKEALLAGMVDSVPKGKQDSTLLASLLQSFSSRLQTVALSQQIRQSLKEQGYALSHDSLKVEKDLRCYGVASSHLKTLLKKSKVKDQKPDTNLPDVTKNLIRDRFAESPHHVGQSGTKVMSEPLSCAARLQAVASMVEKRASPATSPKPSVACSQLALLLSSEAHLQQYSREHALKTQNANQAASERLAAMARLQENGQKDVGSYQLPKGMSSHLNGQARTSSSKLMASKSSATVFQNPMGIIPSSPKNAGYKNSLERNNIKQAANNSLLLHLLKSQTIPKPMNGHSHSERGSIFEESSTPTTIDEYSDNNPSFTDDSSGDESSYSNCVPIDLSCKHRTEKSESDQPVSLDNFTQSLLNTWDPKVPDVDIKEDQDTSKNSKLNSHQKVTLLQLLLGHKNEENVEKNTSPQGVHNDVSKFNTQNYARTSVIESPSTNRTTPVSTPPLLTSSKAGSPINLSQHSLVIKWNSPPYVCSTQSEKLTNTASNHSMDLTKSKDPPGEKPAQNEGAQNSATFSASKLLQNLAQCGMQSSMSVEEQRPSKQLLTGNTDKPIGMIDRLNSPLLSNKTNAVEENKAFSSQPTGPEPGLSGSEIENLLERRTVLQLLLGNPNKGKSEKKEKTPLRDESTQEHSERALSEQILMVKIKSEPCDDLQIPNTNVHLSHDAKSAPFLGMAPAVQRSAPALPVSEDFKSEPVSPQDFSFSKNGLLSRLLRQNQDSYLADDSDRSHRNNEMALLESKNLCMVPKKRKLYTEPLENPFKKMKNNIVDAANNHSAPEVLYGSLLNQEELKFSRNDLEFKYPAGHGSASESEHRSWARESKSFNVLKQLLLSENCVRDLSPHRSNSVADSKKKGHKNNVTNSKPEFSISSLNGLMYSSTQPSSCMDNRTFSYPGVVKTPVSPTFPEHLGCAGSRPESGLLNGCSMPSEKGPIKWVITDAEKNEYEKDSPRLTKTNPILYYMLQKGGNSVTSRETQDKDIWREASSAESVSQVTAKEELLPTAETKASFFNLRSPYNSHMGNNASRPHSANGEVYGLLGSVLTIKKESE
modifications: 35S-labelled
As for B2, the binding result in assay [3] is reported as “binds”.
